Experimental data: PubChem BioAssay AID686937 (Drosophila RNAi Screening Center, 2013)
Screen: 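Genes in the fly needed for secretion of protein constitutively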 (primary screen). System: Drosophila S2 cells expressing secreted horseradish peroxidase. Reagents: long dsRNA against Drosophila genes. Time to read-out: about 5.5 days (5 days dsRNA, then 12 h reporter induction). Treatment: reporter expression induced after 5 days of dsRNA, read 12 h later; inducer not stated. Detection: 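After 5 days of dsRNA and 12 h of reporter induction, medium peroxidase read by chemiluminescence and scored as per-plate z-score; higher values mean more reporter released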. Direction: z-score: higher = more reporter secreted into medium.
In all, the deposit lists about 23,000 reagents; this is a random part of those that have a named target and a result. 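Reduced-secretion tags in replicate 1 do not always agree with the z-scores; no criterion for assigning the tags was given.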 Names joined by + are all predicted targets of the reagent. Further read-outs or replicates are left out here. The record does not give: the amount of reagent.

Knock-down of ninaB [DRSC16807] resulted in: z-score, replicate 1 = 0.32. Knock-down of CG13700 [DRSC10049] gave: z-score, replicate 1 = -0.02. After knock-down of BNIP3 [DRSC11761] the results were z-score, replicate 1 = 0.15. Against shot [DRSC05459], the values are z-score, replicate 1 = -1.77. Silencing of shot [DRSC05460] resulted in: z-score, replicate 1 = -0.29. shot [DRSC07682] scored z-score, replicate 1 = 0.17.

For CG15773 [DRSC18079] the deposit lists z-score, replicate 1 = 0.35. For CG10077 [DRSC09691], the values are z-score, replicate 1 = 0.03. Against CG8060 [DRSC07064], the values are z-score, replicate 1 = 0.58. Depletion of ppk25 [DRSC04973] gave: z-score, replicate 1 = 0.25. After knock-down of CG2059 [DRSC18203], the record shows z-score, replicate 1 = 0.17. With knock-down of PQBP1 [DRSC14393], the record shows z-score, replicate 1 = 0.27.

With knock-down of Iru [DRSC14457], the record shows z-score, replicate 1 = 0.17. ck [DRSC03509] scored z-score, replicate 1 = 0.31. For chk [DRSC04994] the deposit lists z-score, replicate 1 = 0.48. Against Diap1 [DRSC11404], the entry reads z-score, replicate 1 = -6.36. B9d1 [DRSC14993] showed z-score, replicate 1 = 0.31. With knock-down of Mitofilin [DRSC16742], the screen gave z-score, replicate 1 = -0.56.

With knock-down of SdhAL [DRSC10539], the record shows z-score, replicate 1 = 0.46. Knock-down of SC35 [DRSC02502] came out at: z-score, replicate 1 = -2.03. SC35 [DRSC03425] showed z-score, replicate 1 = -0.45. After knock-down of GluRIIC [DRSC00642] the results were z-score, replicate 1 = 0.22. For CG31832 [DRSC22067], the entry reads z-score, replicate 1 = 0.01. CG13196 [DRSC06321] showed z-score, replicate 1 = 0.26.

With knock-down of Acp29AB [DRSC01857], the record shows z-score, replicate 1 = 0.04. With knock-down of ftz-f1 [DRSC11347], the screen gave z-score, replicate 1 = 0.62. With knock-down of bs [DRSC04676], the screen gave z-score, replicate 1 = 0.42.

An excerpt of the results above:
shot [DRSC05459] → z-score, replicate 1: -1.77
shot [DRSC05460] → z-score, replicate 1: -0.29

More records:
With knock-down of CG33461 [DRSC22892], the record shows z-score, replicate 1 = -0.4. Syt7 [DRSC17130] scored z-score, replicate 1 = 0.42. With knock-down of Syt7 [DRSC17159] the results were z-score, replicate 1 = 0.47. After knock-down of CG13049 [DRSC09930] the results were z-score, replicate 1 = 0.21. Silencing of CG32277 [DRSC08196] came out at: z-score, replicate 1 = 0.37. With knock-down of CG31775 + CG42586 [DRSC22289], the record shows z-score, replicate 1 = 0.33.

After knock-down of CG7322 [DRSC20036], the record shows z-score, replicate 1 = 0.06. Against CG4496 [DRSC02753], the entry reads z-score, replicate 1 = 0.19. Against Cda5 [DRSC00003], the values are z-score, replicate 1 = 0.84. For Cda5 [DRSC00529] the deposit lists z-score, replicate 1 = 0.22. Cda5 [DRSC00532] gave z-score, replicate 1 = 0.1. For Cda5 [DRSC21330] the deposit lists z-score, replicate 1 = 0.88.

Knock-down of qsm [DRSC05896] resulted in: z-score, replicate 1 = 0.55. Against qsm [DRSC06393] the deposit lists z-score, replicate 1 = -0.14.
